From publication PMC2777385
Results are given in words; binding and its absence hold for the method and conditions named. Binding seen in cells or lysates may run through a third protein. Some entries that bind do so weakly or less than the wild type.

Sequences of proteins named here, by UniProt entry; tags and fusion partners are left off. Residues count along the entry.
UniProt P24369, residues 34-216: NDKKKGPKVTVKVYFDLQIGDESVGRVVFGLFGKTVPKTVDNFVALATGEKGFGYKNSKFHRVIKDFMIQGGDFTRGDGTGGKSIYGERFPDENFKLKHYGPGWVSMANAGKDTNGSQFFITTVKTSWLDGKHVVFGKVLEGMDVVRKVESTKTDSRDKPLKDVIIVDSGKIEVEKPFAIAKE

How the values were obtained:
GST-cyclophilin B [1] = molecular target: GST-cyclophilin B (UniProt P24369); assay: pull-down; lysates of wild-type (and CypB-knockout) mouse fibroblasts mixed with recombinant GST-cyclophilin B or GST; bound proteins isolated on GSH-agarose, washed in lysis buffer (1% NP-40, 20 mM HEPES pH 7.4, 5 mM NaCl), western blot; only the target purified
GST-cyclophilin B [2] = molecular target: GST-cyclophilin B (UniProt P24369); assay: pull-down; as a3, GST-CypB with fibroblast lysates on glutathione-agarose, in the presence of cyclosporine A; western blot for P3H1; only the target purified

B1: Prolyl-3-hydroxylase-1 (P3H1), mouse fibroblasts (enzyme, UniProt Q3V1T4 26-739)
chain: ESEPGWDVAAPDLLYAEGTAAYSRGDWPGVVLNMERALRSRAALRALRLRCRTRCATELPWAPDLDLGPDPSLSQDPGAAALHDLRFFGAVLRRAACLRRCLGPPSAHLLSEELDLEFNKRSPYNYLQVAYFKINKLEKAVAAAHTFFVGNPEHMEMRQNLDYYQTMSGVKEADFRDLEAKPHMHEFRLGVRLYSEEKPQEAVPHLEAALQEYFVADEECRALCEGPYDYDGYNYLDYSADLFQAITDHYVQVLNCKQNCVTELASHPSREKPFEDFLPSHYNYLQFAYYNIGNYTQAIECAKTYLLFFPNDEVMHQNLAYYTAMLGEEEASSISPRENAEEYRRRSLLEKELLFFAYDIFGIPFVDPDSWTPEEVIPKRLQEKQKSERETAVRISQEIGNLMKEIETLVEEKTKESLDVSRLTREGGPLLYEGISLTMNSKVLNGSQRVVMDGVISDDECQELQRLTNAAATSGDGYRGQTSPHTPNEKFYGVTVLKALKLGQEGKVPLQSARMYYNVTEKVRRVMESYFRLDTPLYFSYSHLVCRTAIEESQAERKDSSHPVHVDNCILNAEALMCIKEPPAYTFRDYSAILYLNGDFDGGNFYFTELDAKTVTAEVQPQCGRAVGFSSGTENPHGVKAVTRGQRCAIALWFTLDPRHSERDRVQADDLVKMLFSPEEVDLPQEQPLPDQQGSPEPGEESLSDRGSLHKDEL
- binding (GST-cyclophilin B [1]): binds
- binding (GST-cyclophilin B [2]): binds
